Experimental data published in doi:10.1101/2021.12.23.473878.
These are yes or no findings as the source states them, for the method shown. Binding seen in cells or lysates may run through a third protein. Some binding calls cover weakened binding; strength is not graded here. For some of these results: Tags and fused reporters may be left off the sequences shown. Each block holds one binder with its values, some of them ahead of it.

Columns and labels:
Assay in all cases: co-IP
[1] = target: T1, TACAN mutant K160X (human) (UniProt Q9BXJ8)
T1 sequence: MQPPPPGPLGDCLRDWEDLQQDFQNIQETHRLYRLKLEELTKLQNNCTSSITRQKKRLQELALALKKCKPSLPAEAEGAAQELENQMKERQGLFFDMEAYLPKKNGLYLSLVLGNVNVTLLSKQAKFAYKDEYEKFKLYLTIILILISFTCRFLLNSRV

[2] = target: T2, endogenous TACAN of IMCD cells (not stated (endogenous in IMCD cells)) (UniProt Q8C1E7)
T2 sequence: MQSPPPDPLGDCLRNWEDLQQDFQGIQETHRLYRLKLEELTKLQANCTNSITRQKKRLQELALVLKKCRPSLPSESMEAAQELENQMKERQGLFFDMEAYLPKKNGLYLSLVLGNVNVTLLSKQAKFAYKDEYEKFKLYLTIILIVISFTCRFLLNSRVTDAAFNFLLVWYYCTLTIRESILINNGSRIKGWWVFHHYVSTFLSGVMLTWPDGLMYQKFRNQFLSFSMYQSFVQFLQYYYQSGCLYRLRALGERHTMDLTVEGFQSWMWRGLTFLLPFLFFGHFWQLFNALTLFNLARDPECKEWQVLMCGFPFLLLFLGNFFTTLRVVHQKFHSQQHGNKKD

[3] = target: T3, TACAN N-terminus (K135X) (human) (UniProt Q9BXJ8)
T3 sequence: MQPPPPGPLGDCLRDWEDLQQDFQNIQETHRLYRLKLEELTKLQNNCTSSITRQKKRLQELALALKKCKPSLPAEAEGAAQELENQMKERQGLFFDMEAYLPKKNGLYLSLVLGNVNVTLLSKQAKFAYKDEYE

[4] = target: T4, TACAN mutant L296-D343 (human) (UniProt Q9BXJ8)
T4 sequence: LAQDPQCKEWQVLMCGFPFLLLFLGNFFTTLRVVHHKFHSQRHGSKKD

B1: PKD2 fragment N580-L700 (domain or fragment, UniProt Q13563 580-700)
chain: NRTMSQLSTTMSRCAKDLFGFAIMFFIIFLAYAQLAYLVFGTQVDDFSTFQECIFTQFRIILGDINFAEIEEANRVLGPIYFTTFVFFMFFILLNMFLAIINDTYSEVKSDLAQQKAEMEL
binding [1]: binds

B4: PKD2 truncation mutant A594X (domain or fragment, UniProt Q13563 1-593)
chain: MVNSSRVQPQQPGDAKRPPAPRAPDPGRLMAGCAAVGASLAAPGGLCEQRGLEIEMQRIRQAAARDPPAGAAASPSPPLSSCSRQAWSRDNPGFEAEEEEEEVEGEEGGMVVEMDVEWRPGSRRSAASSAVSSVGARSRGLGGYHGAGHPSGRRRRREDQGPPCPSPVGGGDPLHRHLPLEGQPPRVAWAERLVRGLRGLWGTRLMEESSTNREKYLKSVLRELVTYLLFLIVLCILTYGMMSSNVYYYTRMMSQLFLDTPVSKTEKTNFKTLSSMEDFWKFTEGSLLDGLYWKMQPSNQTEADNRSFIFYENLLLGVPRIRQLRVRNGSCSIPQDLRDEIKECYDVYSVSSEDRAPFGPRNGTAWIYTSEKDLNGSSHWGIIATYSGAGYYLDLSRTREETAAQVASLKKNVWLDRGTRATFIDFSVYNANINLFCVVRLLVEFPATGGVIPSWQFQPLKLIRYVTTFDFFLAACEIIFCFFIFYYVVEEILEIRIHKLHYFRSFWNCLDVVIVVLSVVAIGINIYRTSNVEVLLQFLEDQNTFPNFEHLAYWQIQFNNIAAVTVFFVWIKLFKFINFNRTMSQLSTTMSRC
binding [4]: binds

Continued, values first:

binding [2]: binds
B2: endogenous PKD2 of IMCD cells (protein, UniProt O35245 1-966)
chain: MVNSRRVQPQPPGDAGRSPAPRASGPGRLVAGGAGLAVPGGLGEQRGLEIEMERIRQAAARDPPAGASASPSPPLSSCSRQAWSRDNPGFEAEEDDDDDEVEGEEGGMVVEMDVEWRPGSRRSASSSAVSSVGARGRGLGSYRGAAHLSGRRRRLEDQGAQCPSPAGGGDPLHRHLPLEGQPPRVAWAERLVRGLRGLWGTRLMEESNANREKYLKSVLRELVTYLFFLVVLCILTYGMMSSNVYYYTRTLSQLFIDTPVSKTEKTNFKTLSSMEDFWKFTEGSFLDGLYWKAQTSNHTQADNRSFIFYENLLLGVPRLRQLRVRNGSCSIPQDLRDEIKECYDVYSVSSEDRAPFGPRNGTAWMYTSEKELNGSSHWGIIASYSGAGYYLDLSRTREETAAQLAGLRRNFWLDRGTRAAFIDFSVYNANINLFCVVRLLAEFPATGGVVPSWQFQPVKLIRYVTAFDFFLAACEIIFCFFIIYYVVEEILEIRIHRLSYFRSFWNCLDVVIVVLSVVAMVINIYRMSNAEGLLQFLEDQNSFPNFEHVAYWQIQFNNISAVMVFLVWIKLFKFINFNRTMSQLSTTMSRCAKDLFGFTIMFSIIFLAYAQLAYLVFGTQVDDFSTFQECIFTQFRIILGDINFAEIEEANRVLGPLYFTTFVFFMFFILLNMFLAIINDSYSEVKSDLAQQKAEMELSDLIRKGCQKALVKLKLKRNTVDAISESLRQGGGKLNFDELRQDLKGKGHTDAEIEAIFTKYDQDGDQELTEREHQQMRDDLEKEREDLDLEHSSLPRPMSSRSFPRSLDDSEEEDDEDSGHSSRRRGSISSGVSYEEFQVLVRRVDRMEHSIGSIVSKIDAVIVKLEIMERAKLKRREVLGRLLDGVAEDARLGRDSEIHREQMERLVREELERWESDDAASQTGHGVSTQVGLGGQPHPRNPRPPSSQSAEGLEGGGGNGSANVHA

binding [3]: no binding
B3: human PKD2 gain-of-function mutant F604P (HA-F604P), in Xenopus oocytes (protein, UniProt Q13563 1-968)
chain: MVNSSRVQPQQPGDAKRPPAPRAPDPGRLMAGCAAVGASLAAPGGLCEQRGLEIEMQRIRQAAARDPPAGAAASPSPPLSSCSRQAWSRDNPGFEAEEEEEEVEGEEGGMVVEMDVEWRPGSRRSAASSAVSSVGARSRGLGGYHGAGHPSGRRRRREDQGPPCPSPVGGGDPLHRHLPLEGQPPRVAWAERLVRGLRGLWGTRLMEESSTNREKYLKSVLRELVTYLLFLIVLCILTYGMMSSNVYYYTRMMSQLFLDTPVSKTEKTNFKTLSSMEDFWKFTEGSLLDGLYWKMQPSNQTEADNRSFIFYENLLLGVPRIRQLRVRNGSCSIPQDLRDEIKECYDVYSVSSEDRAPFGPRNGTAWIYTSEKDLNGSSHWGIIATYSGAGYYLDLSRTREETAAQVASLKKNVWLDRGTRATFIDFSVYNANINLFCVVRLLVEFPATGGVIPSWQFQPLKLIRYVTTFDFFLAACEIIFCFFIFYYVVEEILEIRIHKLHYFRSFWNCLDVVIVVLSVVAIGINIYRTSNVEVLLQFLEDQNTFPNFEHLAYWQIQFNNIAAVTVFFVWIKLFKFINFNRTMSQLSTTMSRCAKDLFGFAIMPFIIFLAYAQLAYLVFGTQVDDFSTFQECIFTQFRIILGDINFAEIEEANRVLGPIYFTTFVFFMFFILLNMFLAIINDTYSEVKSDLAQQKAEMELSDLIRKGYHKALVKLKLKKNTVDDISESLRQGGGKLNFDELRQDLKGKGHTDAEIEAIFTKYDQDGDQELTEHEHQQMRDDLEKEREDLDLDHSSLPRPMSSRSFPRSLDDSEEDDDEDSGHSSRRRGSISSGVSYEEFQVLVRRVDRMEHSIGSIVSKIDAVIVKLEIMERAKLKRREVLGRLLDGVAEDERLGRDSEIHREQMERLVREELERWESDDAASQISHGLGTPVGLNGQPRPRSSRPSSSQSTEGMEGAGGNGSSNVHV
